PubChem BioAssay AID686938 | Drosophila RNAi Screening Center – 2013

- Aim: 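Looking for CRAC channel components and the factors controlling them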 (primary screen)
- Cell system: Drosophila S2R+ cells
- Reagents: long dsRNA against Drosophila genes, about 0.25 µg dsRNA per well, roughly 10,000 cells
- Time to read-out: 5 days of knock-down before the calcium assay
- Treatment: thapsigargin (SERCA pump blocker) to empty calcium stores; entry signal taken 4 min after adding it
- Measurement: 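Duplicate raw fluo-4 intensities per well from a plate reader, at rest and four minutes after thapsigargin emptied calcium stores; entry-to-rest ratio filled for only some wells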
- Direction: calcium entry signal: higher = stronger calcium signal after store depletion; entry to resting ratio: higher = more calcium entry relative to resting level; resting calcium signal: higher = higher resting calcium signal
- Units: calcium entry signal in fluorescence units; resting calcium signal in fluorescence units
- Call rule: 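Hit if the duplicate-averaged plate z-score for entry over resting signal is under −3; wells with weak total dye signal (Fmax z < −2) or more than 5 off-targets removed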
- Calls: active = strongly reduced calcium entry; inactive = no strong reduction
The deposit covers about 23,000 reagents; shown is an unselected part of those that have a named target and a result. Over the whole deposit, 75 (0.33%) were called active. 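Raw plate signals without normalisation; calls rest on plate z-scores that were not deposited; ratio present for only 364 wells.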 A plus sign joins genes that one reagent is predicted to hit. No sequences are given here. The record does not give: the dose of the treatment.

predicted target | amplicon | calcium entry signal, replicate 1 | calcium entry signal, replicate 2 | entry to resting ratio | resting calcium signal, replicate 1 | resting calcium signal, replicate 2 | activity call
CG13137 | DRSC02234 | 2.21e7 | 3.61e7 | – | 1.09e7 | 1.62e7 | inactive
CG9643 | DRSC00722 | 1.96e7 | 2.21e7 | – | 1.06e7 | 1.15e7 | inactive
Brf | DRSC13228 | 3.14e7 | 2.24e7 | – | 1.50e7 | 1.03e7 | inactive
Brf | DRSC14166 | 3.16e7 | 4.33e7 | – | 1.47e7 | 7.79e7 | inactive
Brf | DRSC14167 | 3.00e7 | 4.58e7 | – | 1.40e7 | 8.06e7 | inactive
Wnt5 | DRSC20300 | 3.72e7 | 3.35e7 | – | 1.82e7 | 1.48e7 | inactive
Nsf2 | DRSC22104 | 3.60e7 | 4.81e7 | – | 1.77e7 | 2.63e7 | inactive
CG17778 | DRSC18504 | 3.30e7 | 2.45e7 | 2.5 | 1.34e7 | 1.09e7 | inactive
Nxt1 | DRSC04630 | 2.84e7 | 3.27e7 | – | 1.73e7 | 1.92e7 | inactive
lsn | DRSC16081 | 3.91e7 | 3.57e7 | – | 6.06e7 | 1.79e7 | inactive
CG1979 | DRSC12495 | 3.45e7 | 4.93e7 | – | 1.64e7 | 2.04e7 | inactive
CG2841 | DRSC17699 | 4.82e7 | 5.55e7 | – | 2.30e7 | 2.78e7 | inactive
CG2841 | DRSC18824 | 3.27e7 | 3.51e7 | 2.1 | 1.54e7 | 1.63e7 | inactive
CG2841 | DRSC22106 | 3.79e7 | 4.12e7 | – | 2.05e7 | 2.33e7 | inactive

Just “resting calcium signal, replicate 1”, for 3 of the entries above:
Brf [DRSC14166] = 1.47e7
Brf [DRSC14167] = 1.40e7
Wnt5 [DRSC20300] = 1.82e7

The listing continues.
predicted target | amplicon | calcium entry signal, replicate 1 | calcium entry signal, replicate 2 | entry to resting ratio | resting calcium signal, replicate 1 | resting calcium signal, replicate 2 | activity call
CG16812 | DRSC02519 | 4.71e7 | – | – | 2.34e7 | – | inactive
BaraA1 + BaraA2 | DRSC05417 | 3.89e7 | 5.07e7 | – | 1.74e7 | 2.14e7 | inactive
CG14881 | DRSC15005 | 3.98e7 | 4.58e7 | – | 1.87e7 | 7.51e7 | inactive
Vav | DRSC20384 | 5.39e7 | 6.99e7 | – | 3.01e7 | 3.39e7 | inactive
TotA | DRSC13448 | 5.35e7 | 3.46e7 | – | 2.33e7 | 1.67e7 | inactive
CG43136 | DRSC17417 | 2.53e7 | 3.68e7 | – | 1.25e7 | 1.66e7 | inactive
CG14258 | DRSC14753 | 3.32e7 | 4.86e7 | – | 1.77e7 | 2.16e7 | inactive
Dll | DRSC04610 | 3.52e7 | 5.38e7 | – | 1.91e7 | 2.37e7 | inactive
Cyp9c1 | DRSC04607 | 4.29e7 | – | – | 2.15e7 | – | inactive
CG2201 | DRSC03721 | 3.42e7 | – | – | 1.71e7 | – | inactive
